Data as given in the supplement of paper PMC8728848.
Some of the results follow.

What was measured:
Assay in all cases: glycan array binding signal (z-score within array); higher = stronger binding
Conditions in all cases: glycan notation: IUPAC condensed, linker removed
Fuc(a1-2)Gal = target: Fuc(a1-2)Gal
How it was run: (§1)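 Glycan array data came from 3228 arrays in the Consortium for Functional Glycomics database, and only arrays with an available protein sequence were kept. Glycan names were put into IUPAC-condensed notation, and columns mapping to the same glycan were averaged. The binding signal is a within-array Z-score, averaged across arrays of one protein sequence run at different concentrations or buffers and across linkers. A negative Z-score can be read as non-binding.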

Fuc(a1-2)Gal(b1-3)GalNAc = target: Fuc(a1-2)Gal(b1-3)GalNAc
How it was run: as §1

[1] = target: Fuc(a1-2)Gal(b1-3)GalNAc(a1-3)[Fuc(a1-2)]Gal(b1-4)Glc
How it was run: as §1

[2] = target: Fuc(a1-2)Gal(b1-3)GalNAc(a1-3)[Fuc(a1-2)]Gal(b1-4)GlcNAc
How it was run: as §1

[3] = target: Fuc(a1-2)Gal(b1-3)GalNAc(b1-3)Gal
How it was run: as §1

[4] = target: Fuc(a1-2)Gal(b1-3)GalNAc(b1-3)Gal(a1-4)Gal(b1-4)Glc
How it was run: as §1

[5] = target: Fuc(a1-2)Gal(b1-3)GalNAc(b1-4)[Neu5Ac(a2-3)]Gal(b1-4)Glc
How it was run: as §1

Fuc(a1-2)Gal(b1-3)GlcNAc = target: Fuc(a1-2)Gal(b1-3)GlcNAc
How it was run: as §1

[6] = target: Fuc(a1-2)Gal(b1-3)GlcNAc(b1-2)Man(a1-3)[Fuc(a1-2)Gal(b1-3)GlcNAc(b1-2)Man(a1-6)]Man(b1-4)GlcNAc(b1-4)GlcNAc
How it was run: as §1

[7] = target: Fuc(a1-2)Gal(b1-3)GlcNAc(b1-2)Man(a1-3)[Fuc(a1-2)Gal(b1-3)GlcNAc(b1-2)Man(a1-6)]Man(b1-4)GlcNAc(b1-4)[Fuc(a1-6)]GlcNAc
How it was run: as §1

[8] = target: Fuc(a1-2)Gal(b1-3)GlcNAc(b1-3)Gal(b1-4)Glc
How it was run: as §1

[9] = target: Fuc(a1-2)Gal(b1-3)GlcNAc(b1-3)GalNAc
How it was run: as §1

[10] = target: Fuc(a1-2)Gal(b1-3)GlcNAc(b1-3)[Fuc(a1-2)Gal(b1-3)GlcNAc(b1-6)]GalNAc
How it was run: as §1

[11] = target: Fuc(a1-2)Gal(b1-3)GlcNAc(b1-3)[Gal(b1-4)GlcNAc(b1-6)]Gal(b1-4)Glc
How it was run: as §1

[12] = target: Fuc(a1-2)Gal(b1-3)GlcNAc(b1-3)[Neu5Ac(a2-6)Gal(b1-4)GlcNAc(b1-6)]Gal(b1-4)Glc
How it was run: as §1

[13] = target: Fuc(a1-2)Gal(b1-3)GlcNAc6S
How it was run: as §1

[14] = target: Fuc(a1-2)Gal(b1-3)[Fuc(a1-4)]GlcNAc
How it was run: as §1

[15] = target: Fuc(a1-2)Gal(b1-3)[Fuc(a1-4)]GlcNAc(b1-2)Man(a1-3)[Fuc(a1-2)Gal(b1-3)[Fuc(a1-4)]GlcNAc(b1-2)Man(a1-3)]Man(b1-4)GlcNAc(b1-4)GlcNAc
How it was run: as §1

[16] = target: Fuc(a1-2)Gal(b1-3)[Fuc(a1-4)]GlcNAc(b1-2)Man(a1-3)[Fuc(a1-2)Gal(b1-3)[Fuc(a1-4)]GlcNAc(b1-2)Man(a1-6)]Man(b1-4)GlcNAc(b1-4)[Fuc(a1-6)]GlcNAc(b1-4)[Fuc(a1-6)]GlcNAc
How it was run: as §1

[17] = target: Fuc(a1-2)Gal(b1-3)[Fuc(a1-4)]GlcNAc(b1-3)[Fuc(a1-3)[Gal(b1-4)]GlcNAc(b1-6)]Gal(b1-4)Glc
How it was run: as §1

[18] = target: Fuc(a1-2)Gal(b1-3)[Fuc(a1-4)]GlcNAc(b1-3)[Gal(b1-4)GlcNAc(b1-6)]Gal(b1-4)Glc
How it was run: as §1

[19] = target: Fuc(a1-2)Gal(b1-4)Fuc(a1-3)]GlcNAc(b1-2)Man(a1-3)[Fuc(a1-2)Gal(b1-4)[Fuc(a1-3)]GlcNAc(b1-2)Man(a1-6)]Man(b1-4)GlcNAc(b1-4)GlcNAc
How it was run: as §1

Fuc(a1-2)Gal(b1-4)Glc = target: Fuc(a1-2)Gal(b1-4)Glc
How it was run: as §1

Fuc(a1-2)Gal(b1-4)Glc6S = target: Fuc(a1-2)Gal(b1-4)Glc6S
How it was run: as §1

Fuc(a1-2)Gal(b1-4)GlcNAc = target: Fuc(a1-2)Gal(b1-4)GlcNAc
How it was run: as §1

[20] = target: Fuc(a1-2)Gal(b1-4)GlcNAc(b1-2)Man
How it was run: as §1

[21] = target: Fuc(a1-2)Gal(b1-4)GlcNAc(b1-2)Man(a1-3)[Fuc(a1-2)Gal(b1-4)GlcNAc(b1-2)Man(a1-6)]Man(b1-4)GlcNAc(b1-4)GlcNAc
How it was run: as §1

[22] = target: Fuc(a1-2)Gal(b1-4)GlcNAc(b1-2)Man(a1-3)[Fuc(a1-2)Gal(b1-4)GlcNAc(b1-2)Man(a1-6)]Man(b1-4)GlcNAc(b1-4)[Fuc(a1-6)]GlcNAc
How it was run: as §1

[23] = target: Fuc(a1-2)Gal(b1-4)GlcNAc(b1-2)[Fuc(a1-2)Gal(b1-4)GlcNAc(b1-4)]Man(a1-3)[Fuc(a1-2)Gal(b1-4)GlcNAc(b1-2)Man(a1-6)]Man(b1-4)GlcNAc(b1-4)GlcNAc
How it was run: as §1

[24] = target: Fuc(a1-2)Gal(b1-4)GlcNAc(b1-3)Gal(b1-4)GlcNAc
How it was run: as §1

B1: HopZSSI-T (Helicobacter pylori), B5Z6D0 (protein)
chain: MGSSHHHHHHSSGLVPRGSHMENLYFQGEDNGFFISAGYQIGEAAQMVKNTGELKKLSDTYENLSNLLTNFNNLNQAVTNASSPSEINAAIDNLKANTQGLTGEKTNSPAYQAVYLALNAAVGLWNVIAYNVQCGPGNSSQQSVTFEGQPGHNSSSINCNLTGYNNGVSGPLSIDNFKQLNQAYQVLQQALKQGVPVLNNTNQKIEVKVTTQTNGQSSKETTTTTTTNDAQTLLQEASKMIDVLTTNCPWVNHNPGQNGGAPWGLIRQECVSGFATEFSAVTSMIKNAQEIVTQAQSLNANQNNQNAPQDFNPYTSADRAFAQNMLNHAQAQAKILELADQMKKDLNTIPSQFITNYLAACRIDGTTPSQGVTNNTWGAGCAYVEETITALNNSLAHFGTQAEQIKQSELLARTILDFRGSLSTLNSTYNSITTTASNTPNSPFLKNLISQSTNPNNPGGLQAVYQVNQSAYSQLLSATQELGHNPFRRIGLISSQT
B1 was tested, and the “glycan array binding signal (z-score)” value (Fuc(a1-2)Gal) was -0.396, the “glycan array binding signal (z-score)” value (Fuc(a1-2)Gal(b1-3)GalNAc) was -0.094 and the “glycan array binding signal (z-score)” value [1] was 0.527. For the same binder, the “glycan array binding signal (z-score)” value [2] was -0.483, the “glycan array binding signal (z-score)” value [3] was -0.811 and the “glycan array binding signal (z-score)” value [4] was -0.42. The “glycan array binding signal (z-score)” value [5] was -0.586, the “glycan array binding signal (z-score)” value (Fuc(a1-2)Gal(b1-3)GlcNAc) was -0.332 and the “glycan array binding signal (z-score)” value [6] was 0.172. The “glycan array binding signal (z-score)” value [7] was -0.513, the “glycan array binding signal (z-score)” value [8] was -0.384 and the “glycan array binding signal (z-score)” value [9] was -0.241. For the same binder, the “glycan array binding signal (z-score)” value [10] was 0.21, the “glycan array binding signal (z-score)” value [11] was -0.753 and the “glycan array binding signal (z-score)” value [12] was -0.354. The “glycan array binding signal (z-score)” value [13] was 0.267, the “glycan array binding signal (z-score)” value [14] was -0.383 and the “glycan array binding signal (z-score)” value [15] was -0.261. The “glycan array binding signal (z-score)” value [16] was -0.069, the “glycan array binding signal (z-score)” value [17] was -0.186 and the “glycan array binding signal (z-score)” value [18] was -0.374. The “glycan array binding signal (z-score)” value [19] was 0.118, the “glycan array binding signal (z-score)” value (Fuc(a1-2)Gal(b1-4)Glc) was -0.021 and the “glycan array binding signal (z-score)” value (Fuc(a1-2)Gal(b1-4)Glc6S) was -0.037. For the same binder, the “glycan array binding signal (z-score)” value (Fuc(a1-2)Gal(b1-4)GlcNAc) was -0.171, the “glycan array binding signal (z-score)” value [20] was 0.313 and the “glycan array binding signal (z-score)” value [21] was -0.414. For the same binder, the “glycan array binding signal (z-score)” value [22] was 0.475, the “glycan array binding signal (z-score)” value [23] was 0.381 and the “glycan array binding signal (z-score)” value [24] was -0.211.
